# In US20160228570A1 (QUEEN MARY AND WESTFIELD COLLEGE, published 2016):
# By UniProt entry, the sequences of proteins in these tests, tags left out. Residues count along the entry.
# UniProt P02459, residues 201-1214: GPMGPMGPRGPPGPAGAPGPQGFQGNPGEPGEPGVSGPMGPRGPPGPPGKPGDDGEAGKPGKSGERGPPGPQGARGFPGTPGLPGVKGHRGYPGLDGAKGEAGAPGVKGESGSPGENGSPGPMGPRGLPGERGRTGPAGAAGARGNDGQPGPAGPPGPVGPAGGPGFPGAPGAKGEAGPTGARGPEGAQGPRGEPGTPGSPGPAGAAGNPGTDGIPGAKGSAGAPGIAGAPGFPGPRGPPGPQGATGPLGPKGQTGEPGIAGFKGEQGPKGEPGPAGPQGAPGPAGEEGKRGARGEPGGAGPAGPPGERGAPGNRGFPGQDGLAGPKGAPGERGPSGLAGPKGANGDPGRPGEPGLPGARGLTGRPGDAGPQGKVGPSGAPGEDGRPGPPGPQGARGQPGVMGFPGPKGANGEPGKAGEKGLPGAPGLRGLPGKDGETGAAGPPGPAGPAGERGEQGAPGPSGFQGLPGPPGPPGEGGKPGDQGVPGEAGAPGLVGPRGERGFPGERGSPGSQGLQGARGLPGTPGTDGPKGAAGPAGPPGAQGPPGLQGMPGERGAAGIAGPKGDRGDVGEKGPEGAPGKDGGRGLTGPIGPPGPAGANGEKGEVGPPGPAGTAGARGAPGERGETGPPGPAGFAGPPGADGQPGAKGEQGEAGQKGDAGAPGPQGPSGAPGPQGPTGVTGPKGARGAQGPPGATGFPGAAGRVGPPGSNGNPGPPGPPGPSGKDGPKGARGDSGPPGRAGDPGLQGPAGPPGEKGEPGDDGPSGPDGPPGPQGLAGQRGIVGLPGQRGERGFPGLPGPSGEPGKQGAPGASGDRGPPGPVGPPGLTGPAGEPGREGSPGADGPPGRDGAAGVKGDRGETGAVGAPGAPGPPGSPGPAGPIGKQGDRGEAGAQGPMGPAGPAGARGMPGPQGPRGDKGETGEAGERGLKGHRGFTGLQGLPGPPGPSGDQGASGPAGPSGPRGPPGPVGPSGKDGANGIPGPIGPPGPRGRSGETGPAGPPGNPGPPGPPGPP
# Numbering of substitutions follows the chain as printed. No constants are given. Whether binding was seen depends on the method and setting. Some results given as binding are weak or reduced against the parent protein; the word gives no strength.
# B1: scFv 1-7G (scFv)
# scFv: EVQLLESGGGLVQPGGSLRLSCAASGFTFSSYAMSWVRQAPGKGLEWVSSISNSGSYTDYADSVKGRFTISRDNSKNTLYLQMNSLRAEDTAVYYCAKGYGSFDYWGQGTLVTVSSGGGGSGGGGSGGGGSTDIQMTQSPSSLSASVGDRVTITCRASQSISSYLNWYQQKPGKAPKLLIYAASTLQSGVPSRFSGSGSGTDFTLTISSLQPEDFATYYCQQANSSPDTFGQGTKVEIKR
# B2: scFv 3-5H (scFv)
# scFv: EVQLLESGGGLVQPGGSLRLSCAASGFTFSSYAMSWVRQAPGKGLEWVSSIAYGGAGTDYADSVKGRFTISRDNSKNTLYLQMNSLRAEDTAVYYCAKNYTAFDYWGQGTLVTVSSGGGGSGGGGSGGGGSTDIQMTQSPSSLSASVGDRVTITCRASQSISSYLNWYQQKPGKAPKLLIYAASYLQSGVPSRFSGSGSGTDFTLTISSLQPEDFATYYCQQGAGSPSTFGQGTKVEIKR
# B3: scFv 6-10H (scFv)
# scFv: EVQLLESGGGLVQPGGSLRLSCAASGFTFSSYAMSWVRQAPGKGLEWVSSISYTGDSTYYADSVKGRFTISRDNSKNTLYLQMNSLRAEDTAVYYCAKNYSAFDYWGQGTLVTVSSGGGGSGGGGSGGGGSTDIQMTQSPSSLSASVGDRVTITCRASQSISSYLNWYQQKPGKAPKLLIYYASYLQSGVPSRFSGSGSGTDFTLTISSLQPEDFATYYCQQADSTPTTFGQGTKVEIKR
# B4: scFv 6-10D (scFv)
# scFv: B3 scFv with Y53N, T54N, D56S, A102Y, Y182A, Y185N, A223T, D224S, T226Y
# B5: scFv 3-4D (scFv)
# scFv: B3 scFv with Y182T, Y185N, A223S, D224Y, S225A, T226S
# B6: scFv 6-8C (scFv)
# scFv: B3 scFv with Y53S, T54S, S57T, N99S, A102Y, Y182T, Y185T, A223S, D224S, T226N
# B7: scFv 6-4E (scFv)
# scFv: B3 scFv with Y182T, Y185N, A223T, D224G, T226Y
# B8: scFv 3-2C (scFv)
# scFv: B3 scFv with S52D, Y53T, D56T, S57T, Y60F, A102S, Y182S, A223G, D224Y, T226A
# B9: scFv 3-6B (scFv)
# scFv: B3 scFv with S52N, Y53A, D56Y, S57G, A102D, Y182S, Y185A, A223G, T226Y
# B10: scFv 3-5G (scFv)
# scFv: B3 scFv with S52D, Y53S, T54A, D56A, Y182N, Y185S, A223S, S225T, T226Y, T228S
# B11: scFv 3-12F (scFv)
# scFv: B3 scFv with Y53T, T54N, D56S, A102S, Y182D, Y185G, A223G, S225T, T226S
# B12: scFv 3-11E (scFv)
# scFv: B3 scFv with S52D, Y53S, T54A, N99S, A102Y, Y182T, D224S, S225D, T226Y
# B13: scFv 3-7B (scFv)
# scFv: B1 scFv with S52N, S54Y, Y57N, D59A, G101S, T185Y, A223T, N224S
# B14: scFv 3-9A (scFv)
# scFv: EVQLLESGGGLVQPGGSLRLSCAASGFTFSSYAMSWVRQAPGKGLEWVSTIDTAGSYTDYADSVKGRFTISRDNSKNTLYLQMNSLRAEDTAVYYCAKNYSYFDYWGQGTLVTVSSGGGGSGGGGSGGGGSTDIQMTQSPSSLSASVGDRVTITCRASQSISSYLNWYQQKPGKAPKLLIYGASTLQSGVPSRFSGSGSGTDFTLTISSLQPEDFATYYCQQSTASPSTFGQGTKVEIKR
# B15: scFv 6-9A (scFv)
# scFv: EVQLLESGGGLVQPGGSLRLSCAASGFTFSSYAMSWVRQAPGKGLEWVSNIATDGTTTYYADSVKGRFTISRDNSKNTLYLQMNSLRAEDTAVYYCAKNSTYFDYWGQGTLVTVSSGGGGSGGGGSGGGGSTDIQMTQSPSSLSASVGDRVTITCRASQSISSYLNWYQQKPGKAPKLLIYSASTLQSGVPSRFSGSGSGTDFTLTISSLQPEDFATYYCQQAATSPTTFGQGTKVEIKR
# B16: scFv 6-9F (scFv)
# scFv: B15 scFv with N50S, A52N, T53D, D54T, T56Y, S100Y, S182T, A224Y, S226A
# B17: scFv 6-7G (scFv)
# scFv: B15 scFv with N50S, D54T, T56D, T57N, S100Y, T101S, S182T, T225G, S226N
# B18: scFv 3-10C (scFv)
# scFv: B15 scFv with N50S, T53N, D54A, T57A, N99S, S100Y, T101S, Y102N, A224S
# B19: scFv 3-2F (scFv)
# scFv: EVQLLESGGGLVQPGGSLRLSCAASGFTFSSYAMSWVRQAPGKGLEWVSAIANTGSATNYADSVKGRFTISRDNSKNTLYLQMNSLRAEDTAVYYCAKNYTAFDYWGQGTLVTVSSGGGGSGGGGSGGGGSTDIQMTQSPSSLSASVGDRVTITCRASQSISSYLNWYQQKPGKAPKLLIYDASTLQSGVPSRFSGSGSGTDFTLTISSLQPEDFATYYCQQRNTSPTTFGQGTKVEIKR
# B20: scFv 3-9D (scFv)
# scFv: EVQLLESGGGLVQPGGSLRLSCAASGFTFSSYAMSWVRQAPGKGLEWVSSIASSGTTTYYADSVKGRFTISRDNSKNTLYLQMNSLRAEDTAVYYCAKSYADFDYWGQGTLVTVSSGGGGSGGGGSGGGGSTDIQMTQSPSSLSASVGDRVTITCRASQSISSYLNWYQQKPGKAPKLLIYAASNLQSGVPSRFSGSGSGTDFTLTISSLQPEDFATYYCQQADTYPTTFGQGTKVEIKR
# B21: scFv 6-10G (scFv)
# scFv: EVQLLESGGGLVQPGGSLRLSCAASGFTFSSYAMSWVRQAPGKGLEWVSSIDAGGNGTYYADSVKGRFTISRDNSKNTLYLQMNSLRAEDTAVYYCAKNYSSFDYWGQGTLVTVSSGGGGSGGGGSGGGGSTDIQMTQSPSSLSASVGDRVTITCRASQSISSYLNWYQQKPGKAPKLLIYTASNLQSGVPSRFSGSGSGTDFTLTISSLQPEDFATYYCQQNNYYPTTFGQGTKVEIKR
# B22: scFv 3-7H (scFv)
# scFv: EVQLLESGGGLVQPGGSLRLSCAASGFTFSSYAMSWVRQAPGKGLEWVSAINAYGGSTYYADSVKGRFTISRDNSKNTLYLQMNSLRAEDTAVYYCAKNYSYFDYWGQGTLVTVSSGGGGSGGGGSGGGGSTDIQMTQSPSSLSASVGDRVTITCRASQSISSYLNWYQQKPGKAPKLLIYAASSLQSGVPSRFSGSGSGTDFTLTISSLQPEDFATYYCQQGSDYPTTFGQGTKVEIKR
# B23: scFv 6-6E (scFv)
# scFv: EVQLLESGGGLVQPGGSLRLSCAASGFTFSSYAMSWVRQAPGKGLEWVSAISAAGTATAYADSVKGRFTISRDNSKNTLYLQMNSLRAEDTAVYYCAKGYDTFDYWGQGTLVTVSSGGGGSGGGGSGGGGSTDIQMTQSPSSLSASVGDRVTITCRASQSISSYLNWYQQKPGKAPKLLIYAASSLQSGVPSRFSGSGSGTDFTLTISSLQPEDFATYYCQQNYGYPNTFGQGTKVEIKR
# B24: scFv 3-3E (scFv)
# scFv: B23 scFv with S52D, A53G, A54T, T56Y, A57G, G99S, A182G, N223T, Y224S, G225D
# B25: scFv 3-6G (scFv)
# scFv: EVQLLESGGGLVQPGGSLRLSCAASGFTFSSYAMSWVRQAPGKGLEWVSSINSNGTDTYYADSVKGRFTISRDNSKNTLYLQMNSLRAEDTAVYYCAKNYSDFDYWGQGTLVTVSSGGGGSGGGGSGGGGSTDIQMTQSPSSLSASVGDRVTITCRASQSISSYLNWYQQKPGKAPKLLIYTASALQSGVPSRFSGSGSGTDFTLTISSLQPEDFATYYCQQGYGAPTTFGQGTKVEIKR
# B26: scFv 6-3B (scFv)
# scFv: B22 scFv with A50S, N52A, A53T, Y54T, G56T, Y59T, A182T, D225T, Y226A
# Target: T1, ribose-modified CII (bovine, UniProt P02459 201-1214, glycated with 2M ribose, overnight at 37 C; residues not stated)
# T1 construct: also called Ribose-CII; glycated CII
# Test: phage ELISA screen; Antigen column of Table 3
row,binding,Binder
1,binds,B1

# Target: T2, HOCl modified CII (bovine, UniProt P02459 201-1214, modified with HOCl; residues not stated)
# T2 construct: also called HOCl-CII; HOCl-Collagen II
# Test: phage ELISA screen; Antigen column of Table 3
row,binding,Binder
1,binds,B2
2,binds,B3
3,binds,B4
4,binds,B5
5,binds,B6
6,binds,B7
7,binds,B8
8,binds,B9
9,binds,B10
10,binds,B11
11,binds,B12
12,binds,B13
13,binds,B14
14,binds,B15
15,binds,B16
16,binds,B17
17,binds,B18
18,binds,B19
19,binds,B20
20,binds,B21
21,binds,B22
22,binds,B23
23,binds,B24
24,binds,B25
25,binds,B26
